In paper PMC5814901:
No constants are given. Whether binding was seen depends on the method and setting. Binding calls can cover weak binding; strength is not graded here.

Columns and labels:
[1] = target: ZnG–UvrA (UvrA in which the tip of the C-terminal zinc finger is removed) (Bacillus caldotenax); test: single-molecule fluorescence imaging of Qdot-labelled complexes on damaged DNA tightropes; λ-DNA tightropes with one fluorescein-dT lesion marked by streptavidin Qdot565; UvrAB singly labelled on UvrB with Qdot655; complexes bound to DNA counted; room temperature; ABC buffer; both purified
[2] = target: UvrA (Bacillus caldotenax) (Bacillus caldotenax); test: as above

B1: UvrB (Bacillus caldotenax) (protein, UniProt P56981 1-658)
chain: MVEGRFQLVAPYEPQGDQPQAIAKLVDGLRRGVKHQTLLGATGTGKTFTISNVIAQVNKPTLVIAHNKTLAGQLYSELKEFFPHNAVEYFVSYYDYYQPEAYVPQTDTYIEKDAKINDEIDKLRHSATSALFERRDVIIVASVSCIYGLGSPEEYRELVVSLRVGMEIERNALLRRLVDIQYDRNDIDFRGTFRVRGDVVEIFPASRDEHCIRVEFFGDEIERIREVDALTGKVLGEREHVAIFPASHFVTREEKMRLAIQNIEQELEERLAELRAQGKLLEAQRLEQRTRYDLEMMREMGFCSGIENYSRHLALRPPGSTPYTLLDYFPDDFLIIVDESHVTLPQLRGMYNGDRARKQVLVDHGFRLPSALDNRPLTFEEFEQKINQIIYVSATPGPYELEHSPGVVEQIIRPTGLLDPTIDVRPTKGQIDDLIGEIRERVERNERTLVTTLTKKMAEDLTDYLKEAGIKVAYLHSEIKTLERIEIIRDLRLGKYDVLVGINLLREGLDIPEVSLVAILDADKEGFLRSERSLIQTIGRAARNANGHVIMYADTITKSMEIAIQETKRRRAIQEEYNRKHGIVPRTVKKEIRDVIRATYAAEETEMYEAKPAAAMTKQEREELIRTLEAEMKEAAKALDFERAAQLRDIIFELKAEG
Q: Which binding [1] does the source give for B1 here?
A: binds

Q: What about the binding [2] of the same binder?
A: binds
